{
  "source": "patent US11970518B2",
  "about": "“Compositions and methods for the encapsulation and scalable delivery of agrochemicals” (AgroSpheres, Inc., priority 2017, dated 2024)",
  "assay": "Total encapsulation analysis of agrochemical in minicells (spectrophotometer)",
  "assay_type": "physicochemical",
  "settings": "experiments 1 and 2, increasing concentration of starting material, two hours incubation, 1 mL minicells OD ~1.0",
  "note": "At least one structure is not confirmed: it was looked up by name or label, or the drawing left a doubt.",
  "data": [
    {"smiles": "CCOC(=O)OC1=C(c2cc(C)ccc2C)C(=O)NC12CCC(OC)CC2", "note": "(stereo not shown) [Spirotetramat, [3-(2,5-dimethylphenyl)-8-methoxy-2-oxo-1-azaspiro[4.5]dec-3-en-4-yl]ethyl carbonate]", "values": [
      {"measurement": "encapsulation in minicells", "value": "increased encapsulation"}
    ]}
  ]
}
